The list shows a part of the results.
How the values were obtained:
Assay in all cases: log2 fold change, soluble protein after heating vs DMSO (PISA); higher = thermal stabilisation; K562 lysate, 10 uM; active = over 0.2 and 3.5 SD of the protein, either way, in both replicates (recomputed)
[1] = compound: C1=CC=C(C=C1)[C@H](COC2=CC3=C(C=C2)NC(=O)N3)NC(=O)C4=CC=CN(C4=O)CC5=CC(=C(C=C5)F)F
Summary of the method: (§1)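 The values are log-two fold changes in thermal stability compared with solvent controls and come from duplicates. They were obtained by TMTpro 16plex LC-MS/MS, with channel sums equalised, on the supernatant after 21,000xg for 90 min. That supernatant came from crude K562 extract at 1 mg/mL protein treated with 10 μM compound for 30 min, heated for 3 min across 48°C-58°C, pooled and brought to 0.5% NP-40 at 4°C.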

Protein sequences, listed by entry. Tags and fused reporters are not part of them. Lines headed by an entry give the natural chain unless they say otherwise; changes in a name come on top.
UniProt Q8N183: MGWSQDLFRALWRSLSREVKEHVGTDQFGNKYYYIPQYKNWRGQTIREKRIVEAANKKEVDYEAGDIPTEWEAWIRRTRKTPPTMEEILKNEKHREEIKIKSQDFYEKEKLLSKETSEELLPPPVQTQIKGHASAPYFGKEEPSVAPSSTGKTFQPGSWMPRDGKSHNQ
UniProt Q12968: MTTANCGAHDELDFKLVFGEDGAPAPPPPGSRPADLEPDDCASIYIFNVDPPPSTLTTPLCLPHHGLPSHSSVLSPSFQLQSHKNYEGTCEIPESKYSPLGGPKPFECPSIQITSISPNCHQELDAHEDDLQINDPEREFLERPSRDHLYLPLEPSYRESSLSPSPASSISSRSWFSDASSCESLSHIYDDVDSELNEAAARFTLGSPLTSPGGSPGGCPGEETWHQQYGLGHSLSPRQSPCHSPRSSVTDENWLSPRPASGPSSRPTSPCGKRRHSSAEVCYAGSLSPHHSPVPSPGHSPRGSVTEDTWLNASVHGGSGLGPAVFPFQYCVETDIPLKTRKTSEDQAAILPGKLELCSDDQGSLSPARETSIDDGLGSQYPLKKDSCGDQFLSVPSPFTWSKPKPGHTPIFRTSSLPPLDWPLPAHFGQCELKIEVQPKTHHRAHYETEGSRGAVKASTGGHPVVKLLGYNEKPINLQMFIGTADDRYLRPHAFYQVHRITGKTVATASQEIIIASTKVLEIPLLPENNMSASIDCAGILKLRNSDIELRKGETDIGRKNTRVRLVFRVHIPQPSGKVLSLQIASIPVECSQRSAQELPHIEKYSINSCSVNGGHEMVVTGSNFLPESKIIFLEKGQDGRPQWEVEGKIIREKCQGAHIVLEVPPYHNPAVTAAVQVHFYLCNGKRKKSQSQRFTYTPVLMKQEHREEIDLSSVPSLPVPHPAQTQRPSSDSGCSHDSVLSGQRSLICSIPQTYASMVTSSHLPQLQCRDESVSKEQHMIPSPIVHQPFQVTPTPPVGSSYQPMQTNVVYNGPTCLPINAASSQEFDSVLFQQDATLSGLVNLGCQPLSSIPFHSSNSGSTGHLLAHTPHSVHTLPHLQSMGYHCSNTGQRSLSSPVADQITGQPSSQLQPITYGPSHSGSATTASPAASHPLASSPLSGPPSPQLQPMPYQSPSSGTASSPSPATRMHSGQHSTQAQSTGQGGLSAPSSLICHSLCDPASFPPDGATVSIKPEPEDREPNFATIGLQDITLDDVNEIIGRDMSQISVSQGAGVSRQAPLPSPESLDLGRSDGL
UniProt Q9UN36: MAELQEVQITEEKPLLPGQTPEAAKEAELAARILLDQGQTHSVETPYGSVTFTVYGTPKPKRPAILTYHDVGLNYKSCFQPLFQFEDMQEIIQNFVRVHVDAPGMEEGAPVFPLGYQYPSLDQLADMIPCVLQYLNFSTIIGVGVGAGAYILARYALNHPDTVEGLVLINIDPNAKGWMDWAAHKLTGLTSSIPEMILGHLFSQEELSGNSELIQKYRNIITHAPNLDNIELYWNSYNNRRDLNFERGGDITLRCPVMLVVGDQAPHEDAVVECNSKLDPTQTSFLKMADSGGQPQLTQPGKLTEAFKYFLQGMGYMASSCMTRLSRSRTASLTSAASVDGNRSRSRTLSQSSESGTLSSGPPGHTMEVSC
UniProt O75251, whole entry, looked up: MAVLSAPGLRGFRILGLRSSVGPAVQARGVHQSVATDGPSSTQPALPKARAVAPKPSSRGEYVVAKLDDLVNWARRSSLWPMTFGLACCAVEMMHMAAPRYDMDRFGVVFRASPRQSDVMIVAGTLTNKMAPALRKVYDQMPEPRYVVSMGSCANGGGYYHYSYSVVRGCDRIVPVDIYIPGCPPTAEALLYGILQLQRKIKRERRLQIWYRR
UniProt Q13952: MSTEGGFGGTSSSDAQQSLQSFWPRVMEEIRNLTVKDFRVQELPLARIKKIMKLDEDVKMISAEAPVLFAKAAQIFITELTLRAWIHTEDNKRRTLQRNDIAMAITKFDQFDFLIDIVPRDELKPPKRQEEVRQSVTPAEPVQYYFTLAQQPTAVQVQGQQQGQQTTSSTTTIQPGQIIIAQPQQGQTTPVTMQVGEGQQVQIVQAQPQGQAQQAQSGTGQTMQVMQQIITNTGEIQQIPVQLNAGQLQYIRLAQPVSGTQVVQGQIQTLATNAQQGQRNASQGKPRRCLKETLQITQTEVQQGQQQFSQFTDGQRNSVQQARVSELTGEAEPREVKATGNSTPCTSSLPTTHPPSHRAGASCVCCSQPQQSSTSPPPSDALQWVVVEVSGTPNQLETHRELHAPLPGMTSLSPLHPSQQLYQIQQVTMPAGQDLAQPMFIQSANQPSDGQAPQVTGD
UniProt Q8N8Q9: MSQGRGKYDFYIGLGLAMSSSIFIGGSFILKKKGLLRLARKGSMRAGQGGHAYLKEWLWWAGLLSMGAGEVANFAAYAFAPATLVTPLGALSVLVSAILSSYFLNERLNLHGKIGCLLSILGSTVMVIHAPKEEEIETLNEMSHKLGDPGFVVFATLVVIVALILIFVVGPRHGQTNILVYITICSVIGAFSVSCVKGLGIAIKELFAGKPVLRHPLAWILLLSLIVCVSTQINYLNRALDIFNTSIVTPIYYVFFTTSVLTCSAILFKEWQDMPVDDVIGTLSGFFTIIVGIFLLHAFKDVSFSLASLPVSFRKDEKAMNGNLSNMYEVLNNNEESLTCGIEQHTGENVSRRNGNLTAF
UniProt Q92692, whole entry, looked up: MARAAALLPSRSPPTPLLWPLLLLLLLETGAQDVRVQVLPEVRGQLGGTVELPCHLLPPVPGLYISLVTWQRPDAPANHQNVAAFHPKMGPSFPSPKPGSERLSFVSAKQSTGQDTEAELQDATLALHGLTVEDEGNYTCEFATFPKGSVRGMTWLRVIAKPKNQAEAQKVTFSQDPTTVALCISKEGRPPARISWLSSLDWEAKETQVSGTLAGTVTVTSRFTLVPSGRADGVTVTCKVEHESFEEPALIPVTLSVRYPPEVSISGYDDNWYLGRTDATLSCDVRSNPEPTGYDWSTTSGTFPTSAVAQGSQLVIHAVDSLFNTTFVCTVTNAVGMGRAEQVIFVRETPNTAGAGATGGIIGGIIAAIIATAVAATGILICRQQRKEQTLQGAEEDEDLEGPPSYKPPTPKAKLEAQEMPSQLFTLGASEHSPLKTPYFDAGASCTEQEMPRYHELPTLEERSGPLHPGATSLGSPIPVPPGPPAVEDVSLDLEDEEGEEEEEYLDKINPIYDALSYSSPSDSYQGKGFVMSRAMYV
UniProt Q9BYG3: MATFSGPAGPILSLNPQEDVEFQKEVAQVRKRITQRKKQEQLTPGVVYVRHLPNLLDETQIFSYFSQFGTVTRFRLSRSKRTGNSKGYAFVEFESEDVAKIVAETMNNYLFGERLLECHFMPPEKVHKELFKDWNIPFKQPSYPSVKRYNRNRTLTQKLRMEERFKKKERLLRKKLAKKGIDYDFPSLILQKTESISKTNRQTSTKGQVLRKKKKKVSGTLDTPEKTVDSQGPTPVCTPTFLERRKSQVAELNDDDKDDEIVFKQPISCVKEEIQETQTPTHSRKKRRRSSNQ
UniProt Q9UFN0: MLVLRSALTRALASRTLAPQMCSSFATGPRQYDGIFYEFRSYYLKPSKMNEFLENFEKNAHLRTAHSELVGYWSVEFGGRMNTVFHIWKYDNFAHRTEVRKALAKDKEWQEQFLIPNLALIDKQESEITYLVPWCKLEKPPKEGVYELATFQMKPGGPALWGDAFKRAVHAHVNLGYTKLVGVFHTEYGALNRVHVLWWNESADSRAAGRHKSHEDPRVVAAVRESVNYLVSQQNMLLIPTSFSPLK
UniProt Q9NX24: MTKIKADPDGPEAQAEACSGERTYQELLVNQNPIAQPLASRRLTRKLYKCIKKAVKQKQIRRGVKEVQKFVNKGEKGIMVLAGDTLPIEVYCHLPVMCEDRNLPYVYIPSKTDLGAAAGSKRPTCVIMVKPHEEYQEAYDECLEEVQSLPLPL
UniProt Q8TDX7: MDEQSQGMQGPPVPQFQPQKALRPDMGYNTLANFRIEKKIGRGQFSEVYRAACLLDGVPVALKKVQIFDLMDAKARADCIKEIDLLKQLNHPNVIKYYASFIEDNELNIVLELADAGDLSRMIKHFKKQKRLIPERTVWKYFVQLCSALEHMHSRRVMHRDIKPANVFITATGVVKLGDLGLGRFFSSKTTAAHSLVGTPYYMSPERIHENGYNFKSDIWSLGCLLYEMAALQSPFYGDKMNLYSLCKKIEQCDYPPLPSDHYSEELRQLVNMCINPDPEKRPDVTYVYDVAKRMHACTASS
UniProt Q9BU61: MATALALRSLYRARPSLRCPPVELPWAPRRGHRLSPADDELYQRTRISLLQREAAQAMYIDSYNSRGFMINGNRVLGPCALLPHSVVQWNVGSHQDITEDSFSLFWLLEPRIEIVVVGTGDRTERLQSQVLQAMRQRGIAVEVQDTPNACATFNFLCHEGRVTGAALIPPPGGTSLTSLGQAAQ
UniProt Q9NX02: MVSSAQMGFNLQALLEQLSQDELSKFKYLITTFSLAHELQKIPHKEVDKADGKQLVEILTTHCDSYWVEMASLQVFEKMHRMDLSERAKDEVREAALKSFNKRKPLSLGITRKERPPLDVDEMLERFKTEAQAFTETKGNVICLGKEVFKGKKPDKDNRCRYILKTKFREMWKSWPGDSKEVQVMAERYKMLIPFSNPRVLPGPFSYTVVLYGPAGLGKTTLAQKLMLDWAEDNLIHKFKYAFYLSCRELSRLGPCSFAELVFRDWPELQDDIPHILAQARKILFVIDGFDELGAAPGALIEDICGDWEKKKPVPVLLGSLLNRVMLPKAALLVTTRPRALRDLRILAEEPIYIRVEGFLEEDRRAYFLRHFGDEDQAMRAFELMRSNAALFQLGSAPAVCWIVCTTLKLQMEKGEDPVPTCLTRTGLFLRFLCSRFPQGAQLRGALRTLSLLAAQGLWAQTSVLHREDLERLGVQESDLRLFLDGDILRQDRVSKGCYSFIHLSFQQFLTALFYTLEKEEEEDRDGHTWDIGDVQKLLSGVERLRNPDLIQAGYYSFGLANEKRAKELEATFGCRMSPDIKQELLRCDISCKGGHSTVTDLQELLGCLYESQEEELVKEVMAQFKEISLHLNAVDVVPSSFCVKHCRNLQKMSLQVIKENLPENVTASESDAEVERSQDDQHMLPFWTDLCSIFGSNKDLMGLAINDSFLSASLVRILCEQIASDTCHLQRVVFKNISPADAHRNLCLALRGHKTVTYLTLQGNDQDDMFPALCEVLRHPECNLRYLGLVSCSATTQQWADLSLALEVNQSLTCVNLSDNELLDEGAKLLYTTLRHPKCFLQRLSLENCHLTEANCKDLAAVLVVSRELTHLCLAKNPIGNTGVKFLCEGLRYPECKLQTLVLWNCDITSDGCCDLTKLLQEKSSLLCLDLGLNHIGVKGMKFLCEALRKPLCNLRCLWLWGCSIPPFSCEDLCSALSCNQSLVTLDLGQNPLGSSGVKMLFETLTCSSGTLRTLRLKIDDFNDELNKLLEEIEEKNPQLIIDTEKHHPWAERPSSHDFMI
UniProt Q9BT67: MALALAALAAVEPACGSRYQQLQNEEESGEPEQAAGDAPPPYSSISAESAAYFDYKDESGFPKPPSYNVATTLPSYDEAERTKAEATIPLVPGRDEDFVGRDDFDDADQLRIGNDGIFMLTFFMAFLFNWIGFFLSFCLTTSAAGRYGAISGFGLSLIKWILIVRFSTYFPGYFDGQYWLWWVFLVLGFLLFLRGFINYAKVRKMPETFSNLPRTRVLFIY
UniProt Q9NYR9: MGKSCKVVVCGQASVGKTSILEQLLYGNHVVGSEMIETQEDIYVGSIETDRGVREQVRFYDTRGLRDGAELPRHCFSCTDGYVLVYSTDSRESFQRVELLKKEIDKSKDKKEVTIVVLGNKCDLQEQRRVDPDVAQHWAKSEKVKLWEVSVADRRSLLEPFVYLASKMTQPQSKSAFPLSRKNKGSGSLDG
UniProt Q96TA1: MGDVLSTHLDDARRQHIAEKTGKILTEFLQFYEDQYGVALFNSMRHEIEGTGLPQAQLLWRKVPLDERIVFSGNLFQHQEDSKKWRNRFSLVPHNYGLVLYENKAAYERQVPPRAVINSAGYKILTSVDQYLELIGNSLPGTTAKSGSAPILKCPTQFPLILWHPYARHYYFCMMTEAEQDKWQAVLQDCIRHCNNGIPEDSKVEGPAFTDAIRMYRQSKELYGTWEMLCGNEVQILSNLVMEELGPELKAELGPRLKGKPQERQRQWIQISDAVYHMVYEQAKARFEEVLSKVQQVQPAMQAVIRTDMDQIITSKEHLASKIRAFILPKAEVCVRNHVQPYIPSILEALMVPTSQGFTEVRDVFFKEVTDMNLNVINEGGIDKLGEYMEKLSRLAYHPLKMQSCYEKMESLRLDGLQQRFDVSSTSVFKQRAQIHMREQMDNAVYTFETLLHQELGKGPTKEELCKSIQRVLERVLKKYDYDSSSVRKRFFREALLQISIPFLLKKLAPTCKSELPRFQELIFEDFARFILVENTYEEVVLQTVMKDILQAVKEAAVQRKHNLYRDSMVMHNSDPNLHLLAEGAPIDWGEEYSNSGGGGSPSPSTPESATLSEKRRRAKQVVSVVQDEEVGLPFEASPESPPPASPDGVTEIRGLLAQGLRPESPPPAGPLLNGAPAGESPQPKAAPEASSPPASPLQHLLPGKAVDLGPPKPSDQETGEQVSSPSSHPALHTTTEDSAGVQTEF

[2] = compound: CC1=C(SC2=C1C(=N[C@H](C3=NN=C(N32)C)CC(=O)N)C4=CC=C(C=C4)Cl)C
Summary of the method: as §1

[3] = compound: CC1=C2C(=CC=C1)N=C(N(C2=O)C3=CC=CC=C3C)CN4C=NC5=C(N=CN=C54)N
Summary of the method: as §1

[4] = compound: Cc1sc2c(c1C)C(c1ccc(Cl)cc1)=N[C@@H](CC(=O)OC(C)(C)C)c1nnc(C)n1-2
Summary of the method: as §1

[5] = compound: c1ccc([C@@H]2C[C@H]2NC2CCNCC2)cc1
Summary of the method: as §1

Measured: log2 fold change

NGLY1 (UniProt Q96IV0)
inactive: [1] -0.011 | [2] 0.002 | [3] 0.016 | [4] -0.018 | [5] -0.07

NDUFAF2 (UniProt Q8N183)
inactive: [1] -0.035 | [2] 0.029 | [3] 0.002 | [4] -0.038 | [5] -0.112

NFATC3 (UniProt Q12968)
inactive: [1] 0.026 | [2] 0.004 | [3] 0.005 | [4] -0.003 | [5] 0.016

NFATC2 (UniProt Q13469)
inactive: [1] 0.027 | [2] 0.073 | [3] 0.064 | [4] 0.031 | [5] -0.1

NDRG2 (UniProt Q9UN36)
inactive: [1] 0.029 | [2] -0.028 | [3] -0.003 | [4] -0.02 | [5] 0.002

NEDD4 isoform 4 (UniProt P46934)
inactive: [1] -0.012 | [2] 0.102 | [3] -0.003 | [4] -0.014 | [5] 0.034

NDUFAF5 (UniProt Q5TEU4)
inactive: [1] 0.078 | [2] 0.016 | [3] 0.026 | [4] -0.174 | [5] 0.004

NDUFS8 (UniProt O00217)
inactive: [1] -0.018 | [2] -0.016 | [3] 0.058 | [4] 0.02 | [5] 0.064

NDUFA6 (UniProt P56556)
inactive: [1] -0.006 | [2] -0.058 | [3] -0.036 | [4] -0.04 | [5] 0.079

NFKBIE (UniProt O00221)
inactive: [1] -0.014 | [2] -0.068 | [3] 0.033 | [4] 0.081 | [5] -0.087

NDUFS7 (UniProt O75251)
inactive: [1] -0.045 | [2] 0.067 | [3] -0.017 | [4] 0.033 | [5] 0.082

NFYC (UniProt Q13952)
inactive: [1] 0.075 | [2] -0.034 | [3] 0 | [4] -0.08 | [5] -0.047

NIPA2 (UniProt Q8N8Q9)
inactive: [1] -0.001 | [2] -0.056 | [3] -0.002 | [4] -0.047 | [5] -0.159

NECTIN2 (UniProt Q92692)
inactive: [1] -0.004 | [2] -0.013 | [3] 0.013 | [4] -0.003 | [5] -0.013

Two records drawn at random from those above, as already listed:
NFYC (UniProt Q13952)
inactive: [1] 0.075 | [2] -0.034 | [3] 0 | [4] -0.08 | [5] -0.047

NGLY1 (UniProt Q96IV0)
inactive: [1] -0.011 | [2] 0.002 | [3] 0.016 | [4] -0.018 | [5] -0.07

Following part

NIFK (UniProt Q9BYG3)
inactive: [1] 0.065 | [2] 0.07 | [3] 0.015 | [4] 0.056 | [5] 0.047

NIPSNAP3A (UniProt Q9UFN0)
active: [5] 0.322
inactive: [1] 0.083 | [2] -0.037 | [3] -0.013 | [4] -0.036

NHP2 (UniProt Q9NX24)
inactive: [1] 0.084 | [2] -0.025 | [3] 0.047 | [4] -0.014 | [5] -0.167

NDUFA12 (UniProt Q9UI09)
inactive: [1] 0.007 | [2] -0.069 | [3] 0.118 | [4] -0.091 | [5] 0.003

NEK7 (UniProt Q8TDX7)
inactive: [1] 0.03 | [2] -0.032 | [3] -0.004 | [4] -0.076 | [5] 0.026

NDUFB4 (UniProt O95168)
inactive: [1] -0.011 | [2] 0.029 | [3] 0.011 | [4] 0.019 | [5] 0.118

NDUFAF3 (UniProt Q9BU61)
inactive: [1] -0.08 | [2] 0.058 | [3] 0.108 | [4] -0.023 | [5] 0.006

NELFA (UniProt Q9H3P2)
inactive: [1] -0.055 | [2] 0.033 | [3] -0.022 | [4] -0.037 | [5] 0.054

NIP7 (UniProt Q9Y221)
inactive: [1] 0.016 | [2] -0.036 | [3] 0.036 | [4] 0.053 | [5] -0.068

NDST2 (UniProt P52849)
inactive: [1] 0.017 | [2] 0.092 | [3] 0.075 | [4] -0.066 | [5] 0.304

NLRP2 (UniProt Q9NX02)
inactive: [1] -0.01 | [2] -0.027 | [3] -0.015 | [4] 0.03 | [5] 0.093

NDFIP1 (UniProt Q9BT67)
inactive: [1] -0.049 | [2] 0 | [3] 0.108 | [4] -0.332 | [5] -0.022

NF1 (UniProt P21359)
inactive: [1] -0.03 | [2] -0.01 | [3] 0.03 | [4] -0.009 | [5] 0.016

NKAP (UniProt Q8N5F7)
inactive: [1] 0.031 | [2] 0.044 | [3] -0.046 | [4] -0.122 | [5] -0.025

NKIRAS2 (UniProt Q9NYR9)
inactive: [1] -0.065 | [2] 0.116 | [3] -0.054 | [4] 0.045 | [5] -0.023

NIBAN2 (UniProt Q96TA1)
inactive: [1] 0.038 | [2] 0.009 | [3] 0.011 | [4] -0.005 | [5] 0.099
